# Data taken from PubChem BioAssay (EPA / NIEHS).
# The chains behind the UniProt entries cited, without tags or fusion partners.
# UniProt P08684, whole entry, looked up: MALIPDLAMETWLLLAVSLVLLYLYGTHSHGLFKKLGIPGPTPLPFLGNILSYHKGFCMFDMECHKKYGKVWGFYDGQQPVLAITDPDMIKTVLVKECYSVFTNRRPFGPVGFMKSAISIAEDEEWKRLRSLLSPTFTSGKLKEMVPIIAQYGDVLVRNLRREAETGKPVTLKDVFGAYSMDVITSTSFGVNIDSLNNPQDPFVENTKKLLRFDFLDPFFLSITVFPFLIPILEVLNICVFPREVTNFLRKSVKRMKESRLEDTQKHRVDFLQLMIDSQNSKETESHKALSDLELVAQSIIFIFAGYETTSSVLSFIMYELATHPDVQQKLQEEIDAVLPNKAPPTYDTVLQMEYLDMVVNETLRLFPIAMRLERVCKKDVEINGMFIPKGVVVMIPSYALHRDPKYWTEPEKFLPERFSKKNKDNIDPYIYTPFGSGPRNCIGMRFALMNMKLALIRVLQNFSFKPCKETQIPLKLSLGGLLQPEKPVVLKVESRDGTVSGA
# The shares of active, inactive and inconclusive entries below differ from those in the screen. A potency beside an inconclusive call is a rough fit, not a confirmed value. Calls of active or inactive are those of the source. Rule for the calls: active = hit-call score of the fitted dose curve at least 0.9, where 1 is the maximum; inconclusive = response in the unintended direction; inactive = score below 0.9.
# Read-out: Cytochrome P450 3A4 (Homo sapiens) (UniProt P08684)
# Assay: CLD_CYP3A4_6hr: CellzDirect (CLD) Gene Expression Assay for xenobiotic metabolism (CYP3A4) at 6 hours (AID 2283680)
# Method: CLD_6hr is a cell-based, multiplexed-readout assay that uses hepatocyte, a human liver primary cell, with measurements taken at 6 hours after chemical dosing in a 96-well plate.CLD_CYP3A4_6hr is one of 16 assay component(s) measured or calculated from the CLD_6hr assay. It is designed to make measurements of mRNA induction, a form of inducible reporter, as detected with chemiluminescence signals by Quantitative Nuclease Protection Assay (qNPA) technology.Data from the assay component CLD_CYP3A4_6hr was analyzed at the endpoint, CLD_CYP3A4_6hr, in the positive analysis fitting direction relative to DMSO as the negative control and baseline of activity. Using a type of inducible reporter, gain-of-signal activity can be used to understand changes in the reporter gene as they relate to the gene CYP3A4. Furthermore, this assay endpoint can be referred to as a primary readout. To generalize the intended target to other relatable targets, this assay endpoint is annotated to the cyp intended target family, where subfamily is xenobiotic metabolism.
# Human hepatocyte cultures were treated daily for two consecutive days with fresh dosing solutions containing appropriate concentrations of the 320 ToxCast chemicals (chemical identities were blinded to CellzDirect and other ToxCast collaborators), vehicle control (0.2% DMSO), and positive control inducers as summarized in Table 1. Due to the large number of treatment groups and chemicals examined, the ToxCast chemicals were divided into two groups (spanning two independent cultures of hepatocytes from separate donor preparations (Hu778: ToxCast plates 1 and 2; Hu776: ToxCast plates 3 and 4). Each preparation of human hepatocyte cultures was treated with respective vehicle control, medium only control, set of six positive controls/reference chemicals for the five hepatic receptor pathways, and a subset of eight of the ToxCast chemicals (indoxacarb, pyrithiobac-sodium, norflurazon, cyhalofop-butyl, methomyl, thiram, acetochlor, and propiconazole). These replicate data, coupled with internal replicates designed within the blinded ToxCast chemical library, provided additional data to evaluate interindividual differences between hepatocyte preparations and their potential impact on chemical profiles.Cell morphology and integrity were evaluated using phase-contrast microscopy as an indicator of hepatocyte cell health (Tyson & Green, 1987). Cultures for each treatment group (i.e., media, vehicle [0.2% DMSO], positive control inducers [multiple concentrations], and the ToxCast chemicals [multiple concentrations]) were observed and cell morphology was assessed relative to vehicle control cultures at each harvest time point (0, 6, 24, or 48 h). […] Images were evaluated at the conclusion of the study to assess changes in cell integrity and account for the effects of chemical exposure on uncharacteristic changes in concentration-dependent gene expression profiles. The results from these determinations of apparent cytotoxicity were annotated (yes/no) alongside the corresponding qNPA data for reference.At the conclusion of each treatment period, hepatocyte cultures (96-well) were washed with 1 volume of HBSS, lysed by addition of 25 ul ArrayPlate lysis buffer (HTG, Tucson, AZ), and 70 ul/well of Denaturation Oil, denatured by incubation at 95C for 10 min, and frozen at approximately -70C until analysis by nuclease protection assay (qNPA) (Roberts et al., 2007). For qNPA analysis, cell lysates were thawed at 50C for approximately 30 min, qNPA probes were added, and samples were incubated at 95C for 10 min to begin the detection process by denaturing the target RNA, dissociating the duplexes and secondary structure hybridization. At the conclusion of the hybridization period, S1 nuclease reagent was added to each sample to digest all nonprotected nucleotides at 50C for 60-90 min. […]
Structure (SMILES),AC50,outcome
Cc1nn(-c2cc(NS(C)(=O)=O)c(Cl)cc2Cl)c(=O)n1C(F)F,active: 1.62 µM,–
Fc1ccc(Oc2ccnc3cc(Cl)cc(Cl)c23)cc1,inconclusive: 20 µM,–
N#Cc1c[nH]cc1-c1cccc2c1OC(F)(F)O2,inconclusive: 0.0547 µM,–
COP(=O)(OC)OC=C(Cl)Cl,–,inactive
O=C(O)c1c(Cl)ccc2cc(Cl)cnc12,–,inactive
CC(C)Nc1nc(Cl)nc(NC(C)C)n1,active: 20 µM,–
CC1(C)CON(Cc2ccccc2Cl)C1=O,active: 1.89 µM,–
CCC(C)n1c(=O)[nH]c(C)c(Br)c1=O (stereo not given),inconclusive: 2.19 µM,–
O=C(O)c1nc(Cl)ccc1Cl,inconclusive: 20 µM,–
CN(C)[C@@H]1C(=O)C(C(N)=O)=C(O)[C@@]2(O)C(=O)C3=C(O)c4c(O)cccc4[C@@](C)(O)[C@H]3[C@H](O)[C@@H]12,inconclusive: 20 µM,–
N#Cc1c(Cl)cccc1Cl,–,inactive
CNC(=O)CSP(=S)(OC)OC,–,inactive
COC(=O)N(C(=O)N1CO[C@@]2(C(=O)OC)Cc3cc(Cl)ccc3C2=N1)c1ccc(OC(F)(F)F)cc1,active: 1.21 µM,–
C[Si](Cn1cncn1)(c1ccc(F)cc1)c1ccc(F)cc1,inconclusive: 20 µM,–
CC(C)C1(C)N=C(c2nc3ccccc3cc2C(=O)O)NC1=O (stereo not given),–,inactive
CC(C)C1(C)N=C(c2ncccc2C(=O)O)NC1=O (stereo not given),inconclusive: 20 µM,–
S=C1NCCN1,–,inactive
CCCN(CC)CC1COC2(CCC(C(C)(C)C)CC2)O1 (stereo not given),–,inactive
CCC(C)Nc1c([N+](=O)[O-])cc(C(C)(C)C)cc1[N+](=O)[O-] (stereo not given),active: 1.2 µM,–
CSC(=O)c1c(C(F)F)nc(C(F)(F)F)c(C(=O)SC)c1CC(C)C,–,inactive

# Ordered by SMILES length (falling): nine of the compounds above.
Structure (SMILES),AC50,outcome
CN(C)[C@@H]1C(=O)C(C(N)=O)=C(O)[C@@]2(O)C(=O)C3=C(O)c4c(O)cccc4[C@@](C)(O)[C@H]3[C@H](O)[C@@H]12,inconclusive: 20 µM,–
CCC(C)Nc1c([N+](=O)[O-])cc(C(C)(C)C)cc1[N+](=O)[O-] (stereo not given),active: 1.2 µM,–
CSC(=O)c1c(C(F)F)nc(C(F)(F)F)c(C(=O)SC)c1CC(C)C,–,inactive
CC(C)C1(C)N=C(c2nc3ccccc3cc2C(=O)O)NC1=O (stereo not given),–,inactive
C[Si](Cn1cncn1)(c1ccc(F)cc1)c1ccc(F)cc1,inconclusive: 20 µM,–
N#Cc1c[nH]cc1-c1cccc2c1OC(F)(F)O2,inconclusive: 0.0547 µM,–
O=C(O)c1c(Cl)ccc2cc(Cl)cnc12,–,inactive
CC(C)Nc1nc(Cl)nc(NC(C)C)n1,active: 20 µM,–
COP(=O)(OC)OC=C(Cl)Cl,–,inactive

# The listing continues.

Structure (SMILES),AC50,outcome
Cc1ccccc1CO[C@@H]1C[C@@]2(C(C)C)CC[C@]1(C)O2,inconclusive: 1.9 µM,–
CCOP(=S)(OCC)SCn1c(=O)oc2cc(Cl)ccc21,inconclusive: 0.0742 µM,–
COc1cc(OC)nc(Sc2cccc(Cl)c2C(=O)O)n1,inconclusive: 0.000542 µM,–
CCC(=O)Nc1ccc(Cl)c(Cl)c1,inconclusive: 0.0073 µM,–
COC(=O)c1ccccc1S(=O)(=O)NC(=O)Nc1nc(C)nc(OC)n1,inconclusive: 20 µM,–
COP(=O)(OC)O/C(C)=C/C(=O)N(C)C,inconclusive: 20 µM,–
Nc1nc(N)nc(NC2CC2)n1,inconclusive: 0.00486 µM,–
COc1cc(OC)nc(NC(=O)NS(=O)(=O)c2cc(NC=O)ccc2C(=O)N(C)C)n1,inconclusive: 0.154 µM,–
CN1COCN(Cc2cnc(Cl)s2)C1=N[N+](=O)[O-],inconclusive: 20 µM,–
O=C(Nc1ccccc1)Nc1ccnc(Cl)c1,inconclusive: 0.0467 µM,–
CC1=NNC(=O)N(/N=C/c2cccnc2)C1,inconclusive: 20 µM,–
CCCOc1nn(C(=O)NS(=O)(=O)c2ccccc2C(=O)OC)c(=O)n1C,inconclusive: 20 µM,–
Cc1nc(N(C)C)nc(OC(=O)N(C)C)c1C,active: 5.6 µM,–
CCNC(=O)NC(=O)C(C#N)=NOC,inconclusive: 0.0004 µM,–
O=C(O)COc1ccc(Cl)cc1Cl,active: 0.49 µM,–
N#CSCSC#N,inconclusive: 20 µM,–
O=C(NC(=O)c1c(F)cccc1F)Nc1ccc(OC(F)(F)C(F)OC(F)(F)F)c(Cl)c1 (stereo not given),inconclusive: 0.0004 µM,–
CC1COC(Cn2cncn2)(c2ccc(Oc3ccc(Cl)cc3)cc2Cl)O1 (stereo not given),inconclusive: 0.0915 µM,–
CNC(=O)/C=C(\C)OP(=O)(OC)OC,inconclusive: 20 µM,–
O=P(O)(O)CCCl,inconclusive: 0.00378 µM,–
